These are yes or no findings as the source states them, for the method shown. Binding seen in cells or lysates may run through a third protein. A yes stands for co-enrichment or nearness to the bait. Other partners may have been found. For part of these data: A no says only that the protein was not detected with the bait. Sequences can lack the tags named with a protein.
What was measured:
[1] = target: T1, His-NopL (recombinant Nodulation Outer Protein L of Sinorhizobium fredii HH103) (Sinorhizobium fredii HH103) (UniProt P55704); test: affinity purification with mass spectrometry; semi-pull-down: purified His-NopL added to protein extract of soybean root hairs (DN50, 1 dpi with HH103), caught on Ni NTA Magarose Beads, eluate analysed by LC-MS/MS; control without His-NopL; only the target purified
T1 sequence: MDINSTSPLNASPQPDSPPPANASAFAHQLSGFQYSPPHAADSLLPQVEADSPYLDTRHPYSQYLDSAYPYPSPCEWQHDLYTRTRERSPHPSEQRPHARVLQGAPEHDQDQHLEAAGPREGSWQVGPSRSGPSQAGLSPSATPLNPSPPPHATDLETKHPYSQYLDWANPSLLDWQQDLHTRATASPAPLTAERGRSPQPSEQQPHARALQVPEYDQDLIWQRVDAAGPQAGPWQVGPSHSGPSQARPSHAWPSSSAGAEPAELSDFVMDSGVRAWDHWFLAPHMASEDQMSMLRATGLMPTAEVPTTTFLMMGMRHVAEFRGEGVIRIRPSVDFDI

[2] = target: T2, NopL-GFP-TbID (Sinorhizobium fredii HH103) (UniProt P55704); test: proximity labelling; TurboID fusion (GmREM1a-GFP-TbID or NopL-GFP-TbID) co-expressed with GmNFR5-FLAG in soybean hairy roots, with or without NopL-Myc (or GmREM1a-myc); 100 μM biotin 2 h; streptavidin beads; anti-FLAG and anti-GFP blots
T2 sequence: T1 sequence

binding [1] | binding [2] | Substance
binds | – | Glycine max Remorin 1a (GmREM1a), endogenous
– | binds | GmNFR5-FLAG (Glycine max) (receptor)
no binding | – | GmREM1b, endogenous
